# No constants are given. Whether binding was seen depends on the method and setting. Binding seen in cells or lysates may run through a third protein. Some entries that bind do so weakly or less than the wild type. Sequences can lack the tags named with a protein.
# The chains behind the UniProt entries cited, without tags or fusion partners.
# UniProt Q7JV23: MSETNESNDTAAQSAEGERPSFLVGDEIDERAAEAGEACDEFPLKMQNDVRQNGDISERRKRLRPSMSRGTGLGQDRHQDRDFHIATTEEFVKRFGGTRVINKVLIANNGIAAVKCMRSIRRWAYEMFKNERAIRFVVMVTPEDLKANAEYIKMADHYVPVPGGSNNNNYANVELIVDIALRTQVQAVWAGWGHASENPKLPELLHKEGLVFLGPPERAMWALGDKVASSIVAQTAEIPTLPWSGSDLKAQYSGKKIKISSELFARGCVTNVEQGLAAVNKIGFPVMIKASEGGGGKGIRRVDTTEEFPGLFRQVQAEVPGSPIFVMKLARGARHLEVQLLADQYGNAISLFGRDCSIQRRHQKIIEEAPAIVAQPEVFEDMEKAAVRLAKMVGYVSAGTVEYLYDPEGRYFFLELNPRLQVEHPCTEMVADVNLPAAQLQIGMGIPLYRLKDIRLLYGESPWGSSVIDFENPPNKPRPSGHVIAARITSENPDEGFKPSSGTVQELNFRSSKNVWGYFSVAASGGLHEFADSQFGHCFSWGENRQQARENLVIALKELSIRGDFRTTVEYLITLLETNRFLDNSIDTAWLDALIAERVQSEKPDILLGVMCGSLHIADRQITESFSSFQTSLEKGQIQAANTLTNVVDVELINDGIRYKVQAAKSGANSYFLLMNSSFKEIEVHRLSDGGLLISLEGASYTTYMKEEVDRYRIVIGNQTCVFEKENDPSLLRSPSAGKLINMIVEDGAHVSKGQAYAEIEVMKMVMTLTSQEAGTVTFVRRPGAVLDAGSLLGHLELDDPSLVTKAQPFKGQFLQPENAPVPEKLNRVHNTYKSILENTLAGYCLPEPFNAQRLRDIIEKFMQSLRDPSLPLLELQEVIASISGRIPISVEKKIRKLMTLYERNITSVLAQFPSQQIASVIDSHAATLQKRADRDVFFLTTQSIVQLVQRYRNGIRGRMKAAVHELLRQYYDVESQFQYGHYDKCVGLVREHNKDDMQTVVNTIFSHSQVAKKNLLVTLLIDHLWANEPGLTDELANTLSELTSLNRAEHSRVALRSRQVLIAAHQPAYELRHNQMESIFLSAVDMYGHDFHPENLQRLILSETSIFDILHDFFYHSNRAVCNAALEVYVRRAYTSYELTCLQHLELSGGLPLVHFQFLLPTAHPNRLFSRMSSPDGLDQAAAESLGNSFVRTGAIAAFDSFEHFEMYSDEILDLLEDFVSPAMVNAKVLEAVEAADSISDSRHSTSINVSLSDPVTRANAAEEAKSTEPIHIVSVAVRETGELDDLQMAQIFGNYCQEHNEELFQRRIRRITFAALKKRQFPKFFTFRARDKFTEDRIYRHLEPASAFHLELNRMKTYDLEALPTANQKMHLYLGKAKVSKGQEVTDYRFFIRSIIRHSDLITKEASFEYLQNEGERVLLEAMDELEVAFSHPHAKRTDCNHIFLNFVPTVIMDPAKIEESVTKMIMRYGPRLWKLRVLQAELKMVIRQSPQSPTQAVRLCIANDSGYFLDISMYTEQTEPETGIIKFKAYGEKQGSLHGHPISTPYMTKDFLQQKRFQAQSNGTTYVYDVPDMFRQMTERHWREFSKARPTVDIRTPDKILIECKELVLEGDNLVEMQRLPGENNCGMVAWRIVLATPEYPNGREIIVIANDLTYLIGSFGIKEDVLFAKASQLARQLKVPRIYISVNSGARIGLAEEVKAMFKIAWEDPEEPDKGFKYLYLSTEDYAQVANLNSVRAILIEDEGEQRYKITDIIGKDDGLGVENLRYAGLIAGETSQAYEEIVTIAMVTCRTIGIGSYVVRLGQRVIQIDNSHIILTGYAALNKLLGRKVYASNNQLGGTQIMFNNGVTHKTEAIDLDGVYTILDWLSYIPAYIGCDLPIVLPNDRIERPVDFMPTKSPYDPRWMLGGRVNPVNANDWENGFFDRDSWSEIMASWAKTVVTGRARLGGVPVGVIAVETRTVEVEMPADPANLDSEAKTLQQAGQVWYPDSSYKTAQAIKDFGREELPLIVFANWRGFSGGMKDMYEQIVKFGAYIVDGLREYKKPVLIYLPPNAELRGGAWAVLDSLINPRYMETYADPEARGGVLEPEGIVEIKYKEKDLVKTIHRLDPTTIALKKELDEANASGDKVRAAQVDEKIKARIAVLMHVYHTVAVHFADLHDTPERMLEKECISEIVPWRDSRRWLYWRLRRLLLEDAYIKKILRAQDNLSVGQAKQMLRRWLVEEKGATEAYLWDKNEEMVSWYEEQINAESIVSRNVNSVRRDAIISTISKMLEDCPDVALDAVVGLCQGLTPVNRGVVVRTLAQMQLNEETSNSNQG
# B1: GFP-tagged Drosophila STING (protein, UniProt A0A0B4LFY9 1-343)
# chain: MAIASNVVEAGNAVRAEKGRKYFYFRKMIGDYIDTSIRIVATVFLADLLLRLYRCVVEYGSNGRYYLPEDRLWIILRRSCTYNNRSIYLIVGFLLVAFFRISVTGNYRNVMPTTLFLFQMPLYWIWSFTDMDQSTLSYSHWIRDSHGLDYAAGMASNYFHGYLKLSLPERKDDGLKHRLAMYEDKNNVTFGIKRLVILIPDEMFVNGVLESHLLDKAEPLETQFINRAGVYRPFKHDVYRMNKKVNGRTYYFAVEGATPMISFFDATYSNLSGTWQMQELKREIWIKFYKHLKELITTWPETRDLVELIIYNSHDSKGNLVDVGELLVAHMQNKTKTIDEISN
# Target: acetyl-CoA carboxylase (D. melanogaster (endogenous in flies)) (UniProt Q7JV23)
# Test: co-IP; ACC immunoprecipitated with rabbit anti-ACC from abdomens of 5-day-old adult males; 10 mM Tris pH 7.4, 100 mM NaCl, 0.02% Triton X-100; normal rabbit IgG as control; flies: w1118 control, dSTING deletion, rescue (dSTING deletion; GFP-dSTING), cg-GAL4/GFP-dSTING
binder,measurement,value
B1,binding,binds
